Measured values: the supplement of paper PMC3334620
The full ranking holds about 33,000 sequences; the median of “E-score (-0.5 to 0.5)” is about -0.0034, and the highest 2% start at about 0.25. The list shows a part of the results.

What follows are sequences tested against T1, Yap3 (UniProt P38749) (assay: PBM E-score (8-mer binding enrichment) (E-score (-0.5 to 0.5)); higher = stronger / more preferred TF binding). Settings: protein concentration: 100 nM; construct: GST-full length.
T1 sequence: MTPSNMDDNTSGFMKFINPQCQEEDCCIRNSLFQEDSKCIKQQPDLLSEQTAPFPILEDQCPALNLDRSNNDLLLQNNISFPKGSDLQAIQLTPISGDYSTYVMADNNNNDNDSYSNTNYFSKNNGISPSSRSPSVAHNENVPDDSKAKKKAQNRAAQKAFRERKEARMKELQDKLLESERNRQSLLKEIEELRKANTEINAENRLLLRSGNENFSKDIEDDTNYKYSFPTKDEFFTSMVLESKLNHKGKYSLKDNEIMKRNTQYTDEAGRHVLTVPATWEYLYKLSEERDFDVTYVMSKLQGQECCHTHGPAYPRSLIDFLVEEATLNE
Description: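 Universal 'all 10-mer' protein binding microarrays (Agilent AMADID 015681) probed with GST-tagged S. cerevisiae TFs (full-length or DBD) made by in vitro transcription/translation (PURExpress), about 100-200 nM. Bound TF was detected with fluorescent anti-GST. Each ungapped 8-mer (which stands for itself and its reverse complement) is scored by the PBM enrichment score (E-score), a modified Wilcoxon-Mann-Whitney statistic from -0.5 to +0.5, computed with the Universal PBM Analysis Suite. Scale: above 0.35 generally sequence-specific binding.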

Row | Sequence | PBM E-score
1 | ACTGCTAA | -0.0939
2 | ATAGTGCA | 0.187
3 | AGCTCACA | -0.0422
4 | CACTAGAC | 0.082
5 | CGTCTGGA | -0.366
6 | ACGAGCGT | -0.135
7 | AGATGGGG | -0.171
8 | AACTTAGA | 0.203
9 | AGCCATGC | -0.0338
10 | CGAGCGCC | -0.305
11 | AGCTGAGG | -0.216
12 | CGAGGACC | -0.159
13 | CCGGTTCG | -0.145
14 | ACACACAA | 0.109
15 | ACAAAGGT | 0.0149
16 | ACAAACGT | -0.0781
17 | ACCCCTAA | -0.109
18 | AGGCCCCA | -0.176
19 | CCAACCGA | 0.134
20 | CTAACGAG | 0.0196
21 | CCTGAACG | -0.154
22 | GATGCAGA | 0.0588
23 | CTGCCTTA | -0.139
24 | ATCGGATA | 0.214
25 | CACATTGC | 0.0928

Some of the entries so far, with tabs.
Row	Sequence	PBM E-score
7	AGATGGGG	-0.171
13	CCGGTTCG	-0.145
17	ACCCCTAA	-0.109
25	CACATTGC	0.0928

Additional entries follow:

Row | Sequence | PBM E-score
26 | CTCGCTCA | 0.0266
27 | GCATATAA | 0.138
28 | CTGAGCTC | 0.0497
29 | CCCTAAAG | -0.275
30 | CGGGGAGA | -0.265
31 | CACCCTAC | 0.0675
32 | CTGGCGCC | -0.104
33 | CGTGATCC | -0.0468
34 | TAAATCCA | 0.2
35 | GGTTTGAC | -0.126
36 | CGTAGAAG | 0.0882
37 | ATACGTGG | 0.0251
38 | CTCCGCAG | -0.0033
39 | CTTCATTC | 0.0779
40 | ATATCTGG | 0.0384
41 | ACTACGAC | -0.00422
42 | CGTACCTA | -0.0347
43 | CGCAAAAG | -0.107
44 | TATTGCAA | 0.183
45 | CTTAGAGA | -0.0377
46 | CTAGAGAA | 0.0508
47 | AGGGGAAT | 0.0443
48 | GGAAGCAC | 0.0329
49 | CATATCCC | 0.0923
50 | CGACTCAC | -0.092

Row | Sequence | PBM E-score
51 | ATGTAGCA | -0.00878
52 | TAAAGTCA | 0.137
53 | TACCAGGA | 0.116
54 | AACCTCAG | -0.0261
55 | AAGCAAGG | -0.128
56 | GAGGATGC | -0.148
57 | GATGCCCA | 0.0612
58 | CAAAAGAC | 0.105
59 | AGAATCGG | -0.0519
60 | CAAGGCCC | -0.322
61 | ACTATATG | 0.193
62 | TTAGTGAA | 0.109
63 | GGGGGCAC | -0.319
64 | GATCTGGC | -0.0239
65 | CAGAGCAC | -0.127
66 | ATCCGATG | 0.0814
67 | ATCGGTGG | -0.165
68 | ACTAAAGG | 0.0113
69 | ATTCACAA | 0.294
70 | CCCCTTCC | -0.277
71 | CGCACGCG | -0.163
72 | GAATGGGC | -0.1
73 | GAGTTGAA | 0.0341
74 | AATAAATC | 0.0738
75 | CCTAATCC | 0.0254

Row | Sequence | PBM E-score
76 | AAAAGGCG | -0.0868
77 | GATAAGGC | -0.00849
78 | AGTGAACT | 0.0633
79 | GTCCCCTA | -0.132
80 | CATACGAA | 0.142
81 | CTTCCCGC | 0.0313
82 | AACTGGCT | -0.148
83 | ACCCATCA | 0.033
84 | AGGGCCCA | -0.28
85 | CGAAGGCC | -0.256
86 | AGAGCGGG | -0.147
87 | CGGTACGA | -0.0571
88 | CCGATGCG | -0.207
89 | GGCTTGGA | -0.166
90 | GCGTATCC | -0.174
91 | GTGCTTGA | 0.0407
92 | CGAACACG | 0.0256
93 | CCCACGCG | -0.158
94 | CAAGTGTG | 0.0428
95 | AAGGGGCT | -0.0651
96 | ACCCATTA | 0.0959
97 | GCCAGTTA | 0.0941
98 | ACTCCCCG | -0.0599
99 | AATTGCCG | 0.0202
100 | GGCGGACA | -0.0652

Row | Sequence | PBM E-score
101 | GGTGACCA | -0.15
102 | AGTCGTAT | -0.0149
103 | CTTAAATA | 0.092
104 | CGACCCTA | -0.202
105 | ATGTACGG | 0.0933
106 | CTTGTGGA | -0.00226
107 | CATGGGAA | 0.0137
108 | AGGTAGCA | -0.152
109 | CGAAGCCG | -0.124
110 | ACATGCTA | -0.0453
111 | GGTAATAA | 0.165
112 | AGAGTCAA | -0.2
113 | AGCAATAT | 0.14
114 | CTAATTAC | 0.253
115 | AAGGAGAC | -0.0315
116 | CGCGTTTA | 0.068
117 | GAGTTAGA | -0.125
118 | AATAAAAA | 0.27
119 | CGAAGTCG | 0.189
120 | ACCATAGG | -0.183
121 | GACAGAGA | 0.0536
122 | CGACGTCG | 0.0993
123 | GATTATCA | 0.148
124 | AGTTGGCG | -0.0355
125 | GATGGTAA | 0.0531

Part of the list above in another layout:
AAGCAAGG
  PBM E-score: -0.128
GAGGATGC
  PBM E-score: -0.148
GATGCCCA
  PBM E-score: 0.0612
CAAAAGAC
  PBM E-score: 0.105

The results go on.

Row | Sequence | PBM E-score
126 | GACGTCTA | 0.0148
127 | ACAACCGG | -0.0836
128 | CATTTGCC | -0.129
129 | ATACTGTA | 0.221
130 | TTCTGAAA | 0.145
131 | CACTTCAA | -0.0165
132 | AATGATAC | 0.264
133 | AGGCGCAC | 0.018
134 | CGAGTACC | 0.126
135 | GGAGGTTA | -0.312
136 | AGAAGGGA | -0.259
137 | ACGGCCGC | -0.0128
138 | GGAAGGGA | -0.259
139 | CACCTCCC | -0.262
140 | CGGTCAGC | -0.0915
141 | AAATTAGC | 0.0853
142 | GTATATCA | 0.0881
143 | GCCGAGCA | -0.0911
144 | AAAGAGGA | -0.019
145 | AAACAACT | 0.11
146 | GGAGACCA | -0.169
147 | CCCTGCTC | -0.136
148 | CTGCGTGC | -0.121
149 | CCGGACGG | -0.263
150 | CTCTAGGC | -0.0659

Rewritten field by field: entries from further up
CATTTGCC
  PBM E-score: -0.129
ATACTGTA
  PBM E-score: 0.221

(continued)

Row | Sequence | PBM E-score
151 | CCTGAAAC | 0.0498
152 | CGCCCTTA | -0.152
153 | CACTGATC | 0.038
154 | CTTTACCC | -0.171
155 | CATATTCA | 0.196
156 | AGGGTGAA | -0.0741
157 | CGGCATGA | 0.162
158 | CCTGGAAG | -0.165
159 | ACACCGAG | -0.11
160 | ACGACATC | -0.101
161 | CACTACCC | -0.13
162 | ACTGGCGA | -0.116
163 | AATGGAAG | 0.105
164 | CTGCCGAA | -0.184
165 | AAAGAGAG | -0.0251
166 | ACTAGCGC | 0.0683
167 | CCCGGAAA | 0.0195
168 | CAGGATCG | -0.145
169 | ACTAATCA | 0.255
170 | CAATTTCG | 0.077
171 | AACTGATC | 0.0818
172 | CCGCAACG | -0.0753
